Assay results reported in the supplement of paper PMC6411743.
± gives the standard deviation of the averaged measurements. The entries are a selection whose mix differs from that of the whole data set. Most entries show no effect beyond the scatter of the controls.

Protein sequences, listed by entry. Tags and fused reporters are not part of them. Lines headed by an entry give the natural chain unless they say otherwise; changes in a name come on top.
UniProt O94915: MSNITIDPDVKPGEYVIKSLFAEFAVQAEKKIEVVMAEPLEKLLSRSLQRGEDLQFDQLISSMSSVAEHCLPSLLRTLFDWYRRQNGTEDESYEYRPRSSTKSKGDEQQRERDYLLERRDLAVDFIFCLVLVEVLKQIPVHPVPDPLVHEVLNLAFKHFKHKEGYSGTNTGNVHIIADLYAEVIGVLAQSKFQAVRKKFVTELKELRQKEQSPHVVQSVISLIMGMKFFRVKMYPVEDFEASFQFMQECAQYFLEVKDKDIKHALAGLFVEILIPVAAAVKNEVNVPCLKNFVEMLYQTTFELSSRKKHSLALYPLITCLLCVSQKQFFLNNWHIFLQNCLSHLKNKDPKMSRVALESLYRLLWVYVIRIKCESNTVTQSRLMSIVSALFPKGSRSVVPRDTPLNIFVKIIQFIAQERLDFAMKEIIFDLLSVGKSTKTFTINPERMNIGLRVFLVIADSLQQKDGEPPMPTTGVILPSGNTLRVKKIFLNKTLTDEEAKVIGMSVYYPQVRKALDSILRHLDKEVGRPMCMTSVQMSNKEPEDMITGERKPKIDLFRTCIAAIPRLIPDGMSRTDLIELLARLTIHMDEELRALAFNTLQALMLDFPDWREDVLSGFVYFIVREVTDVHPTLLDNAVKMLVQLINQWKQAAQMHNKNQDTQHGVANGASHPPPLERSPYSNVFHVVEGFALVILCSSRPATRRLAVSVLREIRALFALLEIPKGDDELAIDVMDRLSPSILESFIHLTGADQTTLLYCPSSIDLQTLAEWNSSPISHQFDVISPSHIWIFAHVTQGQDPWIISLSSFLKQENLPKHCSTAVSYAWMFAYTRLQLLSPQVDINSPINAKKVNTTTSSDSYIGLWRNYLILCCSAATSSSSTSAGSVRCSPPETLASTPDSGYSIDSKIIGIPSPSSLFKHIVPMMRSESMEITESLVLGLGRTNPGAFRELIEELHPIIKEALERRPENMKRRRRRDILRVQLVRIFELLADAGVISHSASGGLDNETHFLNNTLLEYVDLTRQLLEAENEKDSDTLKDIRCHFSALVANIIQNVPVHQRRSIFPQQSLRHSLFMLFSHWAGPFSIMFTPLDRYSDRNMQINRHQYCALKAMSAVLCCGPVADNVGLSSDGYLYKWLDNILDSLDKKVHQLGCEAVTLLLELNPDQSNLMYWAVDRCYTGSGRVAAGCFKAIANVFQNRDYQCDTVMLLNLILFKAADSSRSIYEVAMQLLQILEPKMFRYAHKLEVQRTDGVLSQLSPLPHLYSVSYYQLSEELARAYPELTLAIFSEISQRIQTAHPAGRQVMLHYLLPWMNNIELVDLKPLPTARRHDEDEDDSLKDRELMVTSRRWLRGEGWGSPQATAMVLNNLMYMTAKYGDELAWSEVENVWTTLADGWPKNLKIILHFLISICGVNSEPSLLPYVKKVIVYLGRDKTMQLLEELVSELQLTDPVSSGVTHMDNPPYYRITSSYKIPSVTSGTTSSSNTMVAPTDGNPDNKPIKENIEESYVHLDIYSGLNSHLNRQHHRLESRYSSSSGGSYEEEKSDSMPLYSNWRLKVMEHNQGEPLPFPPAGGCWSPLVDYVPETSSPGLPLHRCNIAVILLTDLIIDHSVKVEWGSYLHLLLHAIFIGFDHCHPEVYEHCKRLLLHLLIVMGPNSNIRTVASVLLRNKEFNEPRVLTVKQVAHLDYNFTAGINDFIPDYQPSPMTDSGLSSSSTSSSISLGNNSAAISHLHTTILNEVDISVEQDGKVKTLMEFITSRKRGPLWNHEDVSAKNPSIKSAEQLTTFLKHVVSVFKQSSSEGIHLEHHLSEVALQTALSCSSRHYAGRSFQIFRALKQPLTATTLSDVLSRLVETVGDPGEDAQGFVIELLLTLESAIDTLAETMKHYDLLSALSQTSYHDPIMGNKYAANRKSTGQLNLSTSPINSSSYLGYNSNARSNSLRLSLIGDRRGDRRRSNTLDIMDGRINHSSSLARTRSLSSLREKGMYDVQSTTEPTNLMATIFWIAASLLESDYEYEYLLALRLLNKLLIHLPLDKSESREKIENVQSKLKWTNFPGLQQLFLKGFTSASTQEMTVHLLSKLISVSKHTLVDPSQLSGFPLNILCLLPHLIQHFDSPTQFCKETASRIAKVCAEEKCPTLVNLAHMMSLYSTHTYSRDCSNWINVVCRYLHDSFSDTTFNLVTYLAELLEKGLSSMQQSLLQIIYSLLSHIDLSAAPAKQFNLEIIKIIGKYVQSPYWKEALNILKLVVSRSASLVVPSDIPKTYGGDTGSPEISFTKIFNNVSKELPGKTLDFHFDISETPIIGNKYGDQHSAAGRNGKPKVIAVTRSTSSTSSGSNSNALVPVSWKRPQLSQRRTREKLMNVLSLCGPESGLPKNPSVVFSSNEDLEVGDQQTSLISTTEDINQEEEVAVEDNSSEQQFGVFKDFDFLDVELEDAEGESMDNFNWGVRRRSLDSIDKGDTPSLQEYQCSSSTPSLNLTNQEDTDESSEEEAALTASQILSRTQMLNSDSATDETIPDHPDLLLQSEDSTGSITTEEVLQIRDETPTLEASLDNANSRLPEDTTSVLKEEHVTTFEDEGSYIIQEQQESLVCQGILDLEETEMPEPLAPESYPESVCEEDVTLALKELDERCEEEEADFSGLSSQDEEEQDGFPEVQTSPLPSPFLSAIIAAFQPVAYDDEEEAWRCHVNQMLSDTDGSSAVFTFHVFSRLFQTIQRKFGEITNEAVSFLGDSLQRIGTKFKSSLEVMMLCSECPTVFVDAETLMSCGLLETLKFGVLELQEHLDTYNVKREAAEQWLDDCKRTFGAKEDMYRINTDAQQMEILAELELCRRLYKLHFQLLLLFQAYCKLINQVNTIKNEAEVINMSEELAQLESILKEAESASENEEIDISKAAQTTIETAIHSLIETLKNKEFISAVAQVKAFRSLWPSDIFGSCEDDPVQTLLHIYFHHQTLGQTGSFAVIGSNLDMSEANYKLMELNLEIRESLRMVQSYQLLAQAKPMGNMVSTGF
UniProt O95292, whole entry: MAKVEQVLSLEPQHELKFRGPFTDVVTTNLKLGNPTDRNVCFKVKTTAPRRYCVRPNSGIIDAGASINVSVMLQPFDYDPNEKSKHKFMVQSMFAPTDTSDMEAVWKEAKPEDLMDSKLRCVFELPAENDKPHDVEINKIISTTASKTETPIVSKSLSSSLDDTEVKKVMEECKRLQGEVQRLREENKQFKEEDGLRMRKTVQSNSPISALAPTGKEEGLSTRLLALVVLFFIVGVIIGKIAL
UniProt O95747, whole entry, looked up: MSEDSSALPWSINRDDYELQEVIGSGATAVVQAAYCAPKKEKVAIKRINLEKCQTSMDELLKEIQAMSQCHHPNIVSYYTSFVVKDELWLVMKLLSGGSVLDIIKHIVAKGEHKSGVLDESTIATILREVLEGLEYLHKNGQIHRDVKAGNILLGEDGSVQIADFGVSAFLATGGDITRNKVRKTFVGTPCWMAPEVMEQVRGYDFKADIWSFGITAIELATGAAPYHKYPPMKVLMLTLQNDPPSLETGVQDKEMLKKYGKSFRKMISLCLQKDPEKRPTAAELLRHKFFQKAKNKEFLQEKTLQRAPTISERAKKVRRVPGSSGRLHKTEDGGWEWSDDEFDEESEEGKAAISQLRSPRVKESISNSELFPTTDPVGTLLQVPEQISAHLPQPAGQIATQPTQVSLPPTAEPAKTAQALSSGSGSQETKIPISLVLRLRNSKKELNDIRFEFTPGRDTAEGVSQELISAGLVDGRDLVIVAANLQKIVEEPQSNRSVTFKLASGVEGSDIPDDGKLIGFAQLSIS
UniProt O75792: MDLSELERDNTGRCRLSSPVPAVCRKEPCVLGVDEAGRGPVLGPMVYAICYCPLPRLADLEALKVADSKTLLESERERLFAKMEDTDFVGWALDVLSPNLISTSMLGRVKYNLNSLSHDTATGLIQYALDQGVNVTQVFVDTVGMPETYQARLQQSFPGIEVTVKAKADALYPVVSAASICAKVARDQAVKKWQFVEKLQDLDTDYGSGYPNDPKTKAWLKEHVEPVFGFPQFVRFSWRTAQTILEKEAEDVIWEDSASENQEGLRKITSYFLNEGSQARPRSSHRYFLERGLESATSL
UniProt O95544: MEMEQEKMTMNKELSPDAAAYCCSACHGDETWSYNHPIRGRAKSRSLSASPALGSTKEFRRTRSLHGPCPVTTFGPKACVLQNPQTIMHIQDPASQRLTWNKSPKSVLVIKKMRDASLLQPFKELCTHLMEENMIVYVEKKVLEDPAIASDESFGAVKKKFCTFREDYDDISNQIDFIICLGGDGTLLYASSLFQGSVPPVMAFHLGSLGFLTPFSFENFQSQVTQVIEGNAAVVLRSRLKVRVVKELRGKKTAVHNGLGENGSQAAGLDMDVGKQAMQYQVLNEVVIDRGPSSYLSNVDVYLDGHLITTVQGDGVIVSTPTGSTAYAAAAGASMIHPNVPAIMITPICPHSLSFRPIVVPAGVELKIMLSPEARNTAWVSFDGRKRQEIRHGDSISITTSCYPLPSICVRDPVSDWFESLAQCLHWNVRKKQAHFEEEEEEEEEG
UniProt O75182: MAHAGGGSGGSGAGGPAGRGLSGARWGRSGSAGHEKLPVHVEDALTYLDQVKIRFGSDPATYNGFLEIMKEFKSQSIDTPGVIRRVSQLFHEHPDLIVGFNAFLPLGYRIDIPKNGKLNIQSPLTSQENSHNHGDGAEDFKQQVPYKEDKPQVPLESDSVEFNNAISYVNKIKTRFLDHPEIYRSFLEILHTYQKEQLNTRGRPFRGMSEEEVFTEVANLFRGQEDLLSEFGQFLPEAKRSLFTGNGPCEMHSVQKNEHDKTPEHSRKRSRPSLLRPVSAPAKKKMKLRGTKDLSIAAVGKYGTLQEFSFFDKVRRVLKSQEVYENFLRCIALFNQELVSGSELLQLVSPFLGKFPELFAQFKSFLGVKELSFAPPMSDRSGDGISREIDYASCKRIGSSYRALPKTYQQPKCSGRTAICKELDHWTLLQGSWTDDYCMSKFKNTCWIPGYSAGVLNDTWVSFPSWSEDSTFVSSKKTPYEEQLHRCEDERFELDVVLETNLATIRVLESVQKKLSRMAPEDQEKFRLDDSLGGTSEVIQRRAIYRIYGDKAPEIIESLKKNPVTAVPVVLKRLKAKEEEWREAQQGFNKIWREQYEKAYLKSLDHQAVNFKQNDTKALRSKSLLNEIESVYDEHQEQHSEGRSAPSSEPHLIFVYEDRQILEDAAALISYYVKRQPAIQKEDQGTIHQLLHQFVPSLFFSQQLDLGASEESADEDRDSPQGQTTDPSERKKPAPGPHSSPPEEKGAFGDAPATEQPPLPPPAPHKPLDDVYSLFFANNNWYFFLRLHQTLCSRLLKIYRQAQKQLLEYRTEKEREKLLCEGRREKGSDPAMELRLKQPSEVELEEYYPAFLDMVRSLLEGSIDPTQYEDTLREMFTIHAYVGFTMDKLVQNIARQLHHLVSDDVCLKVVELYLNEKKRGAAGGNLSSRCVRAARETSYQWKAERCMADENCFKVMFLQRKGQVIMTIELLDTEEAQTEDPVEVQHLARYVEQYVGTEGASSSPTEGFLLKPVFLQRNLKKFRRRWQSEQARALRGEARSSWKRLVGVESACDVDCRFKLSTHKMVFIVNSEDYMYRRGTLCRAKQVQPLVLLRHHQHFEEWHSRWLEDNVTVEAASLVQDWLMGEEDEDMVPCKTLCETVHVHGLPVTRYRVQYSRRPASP
UniProt O94806: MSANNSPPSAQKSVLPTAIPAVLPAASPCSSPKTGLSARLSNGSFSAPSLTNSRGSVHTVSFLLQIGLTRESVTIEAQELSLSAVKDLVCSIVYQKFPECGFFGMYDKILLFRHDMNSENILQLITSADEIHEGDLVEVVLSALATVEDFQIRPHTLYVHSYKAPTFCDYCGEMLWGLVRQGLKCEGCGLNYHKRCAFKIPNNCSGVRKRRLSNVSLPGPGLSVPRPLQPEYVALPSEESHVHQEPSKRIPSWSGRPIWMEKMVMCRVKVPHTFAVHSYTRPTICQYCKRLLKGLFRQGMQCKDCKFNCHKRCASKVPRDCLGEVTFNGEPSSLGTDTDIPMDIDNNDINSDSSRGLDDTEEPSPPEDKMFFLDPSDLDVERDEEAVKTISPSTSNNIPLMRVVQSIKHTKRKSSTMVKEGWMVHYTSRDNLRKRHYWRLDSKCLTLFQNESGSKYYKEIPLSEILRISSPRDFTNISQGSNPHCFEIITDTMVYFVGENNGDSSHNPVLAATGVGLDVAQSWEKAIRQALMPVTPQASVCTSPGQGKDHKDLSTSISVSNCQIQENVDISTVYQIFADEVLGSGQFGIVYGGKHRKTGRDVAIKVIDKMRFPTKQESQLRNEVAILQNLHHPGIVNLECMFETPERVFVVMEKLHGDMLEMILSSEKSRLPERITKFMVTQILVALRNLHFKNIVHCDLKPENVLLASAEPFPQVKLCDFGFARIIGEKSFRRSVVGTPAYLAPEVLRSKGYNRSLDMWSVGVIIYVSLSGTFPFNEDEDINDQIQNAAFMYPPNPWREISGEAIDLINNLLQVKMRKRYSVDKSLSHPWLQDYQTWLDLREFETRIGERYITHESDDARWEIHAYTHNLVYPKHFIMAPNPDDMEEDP

Compound: Nc1ncnc2c1ncn2[C@@H]1O[C@H](COP(=O)(O)OP(=O)(O)OP(=O)(O)O)[C@@H](O)[C@H]1O [adenosine triphosphate]
Assay: NP40-soluble protein abundance relative to vehicle (solubility fold change) (ratio); higher = more soluble protein in presence of ATP
In short: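 Crude Jurkat lysate, prepared by Dounce homogenisation, was exposed to eight concentrations from 0.1 to 10 mM for 10 min at room temperature and then 3 min at 37 °C. Solubilisation used 0.8% NP40 with benzonase for 60 min at 4 °C, followed by ultracentrifugation and TMT labelling of the supernatant for LC-MS/MS. After vsn normalisation of intensities, each value is the fold change against the detergent-processed vehicle within each replicate, across three independent experiments.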

Target	NP40-soluble protein abundance (concentration: 0.1mM)	NP40-soluble protein abundance (concentration: 0.5mM)
RPP14 (UniProt O95059)	0.988 ± 0.11	1.015 ± 0.0026
UniProt O76095 and related entries	0.903 ± 0.086	0.936 ± 0.03
SLU7 (UniProt O95391)	0.869 ± 0.046	0.894 ± 0.06
YEATS4 (UniProt O95619)	0.938 ± 0.088	1.03 ± 0.088
RBBP9 (UniProt O75884)	1.01 ± 0.03	1 ± 0.051
AHSA1 (UniProt O95433)	1.02 ± 0.08	1.05 ± 0.071
UniProt O75093	0.98 ± 0.057	0.954 ± 0.017
UniProt O75419 and related entries	1.03 ± 0.079	1.03 ± 0.05
STAMBP (UniProt O95630)	1.03 ± 0.044	1.03 ± 0.048
GLRX3 (UniProt O76003)	1.02 ± 0.046	1.06 ± 0.085
FRYL (UniProt O94915)	1.04 ± 0.06	1.08 ± 0.068
UniProt O95298 and related entries	0.908 ± 0.15	0.904 ± 0.2
KATNA1 (UniProt O75449)	0.991 ± 0.032	1.02 ± 0.051
PRMT3 (UniProt O60678)	1.06 ± 0.024	1.04 ± 0.035
VAPB (UniProt O95292)	0.991 ± 0.022	1 ± 0.026
UniProt O94874	0.977 ± 0.02	0.997 ± 0.014
UniProt O95671 and related entries	1.04 ± 0.068	1.03 ± 0.07
UniProt O95747	1.05 ± 0.052	1.03 ± 0.076
FARS2 (UniProt O95363)	1.03 ± 0.046	1.03 ± 0.079
B3GAT3 (UniProt O94766)	0.966 ± 0.034	0.979 ± 0.034
UniProt O95163	1.05 ± 0.054	1.07 ± 0.084
RNASEH2A (UniProt O75792)	1.01 ± 0.039	1.01 ± 0.037
NADK (UniProt O95544)	1.03 ± 0.057	0.941 ± 0.026
UniProt O75179 and related entries	0.971 ± 0.025	0.965 ± 0.045
SRP72 (UniProt O76094)	0.994 ± 0.03	1.03 ± 0.07
UniProt O75182 and related entries	1.07 ± 0.091	1.02 ± 0.071
UniProt O75381 and related entries	0.912 ± 0.066	0.828 ± 0.14
UniProt O75170-3|O75170-4|O75170-5|O75170	1 ± 0.019	0.974 ± 0.018
UniProt O60645 and related entries	1.06 ± 0.033	1.08 ± 0.048
PRKD3 (UniProt O94806)	1 ± 0.045	0.998 ± 0.15

Fetched one by one from the entries so far (2):
Target	NP40-soluble protein abundance (concentration: 0.1mM)	NP40-soluble protein abundance (concentration: 0.5mM)
AHSA1 (UniProt O95433)	1.02 ± 0.08	1.05 ± 0.071
SLU7 (UniProt O95391)	0.869 ± 0.046	0.894 ± 0.06
